From the supplement of paper PMC4635364 come the findings set out here.

The structures appear in SMILES notation. Where a name gives a salt, the structure may show the parent alone. Some of the results follow. This data set is noisy: repeats of one test often differ as much as different tests do.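 ReNCell VM, a human fetal ventral-midbrain neural progenitor line, was differentiated without mitogens. Blinded raters scored images stained for doublecortin (early neurons) or tyrosine hydroxylase (dopaminergic neurons) against untreated wells (0 = no change). Scores were averaged across repeats and both raters, and compounds averaging 2 or more were selected as hits for retesting.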

Test [1] relates to ReNCell VM. The experiment in a line: neuronal differentiation score (DCX+ cell fraction vs untreated, manual image score) (score (-3 to 3)); higher = more neuronal differentiation. The note with it: 2 uM, 2 weeks.
Test [2] relates to ReNCell VM. Kind of test: dopaminergic neuron differentiation score (TH+ cell fraction vs untreated, manual image score) (score (0 to 3)); higher = more TH+ dopaminergic neuron differentiation. The following applies: 2 uM, 4 weeks, BDNF 10 ng/ml + GDNF 10 ng/ml.

For `CC(C)/N=c1\cc2n(-c3ccc(Cl)cc3)c3ccccc3nc-2cc1Nc1ccc(Cl)cc1`, the neuronal differentiation score in test [1] (library: Spectrum) was inactive: 0. Moreover, in test [2] (library: Spectrum), the “dopaminergic neuron differentiation score” value is inactive: 0.

Regarding `CC1=C(/C=C/C(C)=C/C=C/C(C)=C/C=C/C=C(C)/C=C/C=C(C)/C=C/C2=C(C)C(=O)CCC2(C)C)C(C)(C)CCC1=O` [CANTHAXANTHIN (euglenanone)], the neuronal differentiation score in test [1] (library: Spectrum) is inactive: 0. For the same molecule, in test [2] (library: Spectrum), the “dopaminergic neuron differentiation score” value is inactive: 0.

As for `CCN1C(=O)NC(c2ccccc2)C1=O` (configuration not stated), the neuronal differentiation score in test [1] (library: Spectrum) is inactive: 0. The “dopaminergic neuron differentiation score” value in test [2] (library: Spectrum) is inactive: 0.

For the molecule `C=CC(C1=CC(=O)C(OC)=CC1=O)c1ccc(O)cc1` (configuration not stated), the neuronal differentiation score in test [1] (library: Spectrum) is inactive: 0. Besides, the “dopaminergic neuron differentiation score” value in test [2] (library: Spectrum) was inactive: 0.

For `CC(=O)OCC(CCn1cnc2cnc(N)nc21)COC(C)=O`, the neuronal differentiation score in test [1] (library: Spectrum) was inactive: -1. Further, the “dopaminergic neuron differentiation score” value in test [2] (library: Spectrum) was inactive: 1.

`NC(=O)C(c1ccccc1)(c1ccccc1)[C@@H]1CCN(CCc2ccc3c(c2)CCO3)C1`: the neuronal differentiation score in test [1] (library: Spectrum) is inactive: 0. For the same molecule, the “dopaminergic neuron differentiation score” value in test [2] (library: Spectrum) was inactive: 0.

As to `CCc1nn(CCCN2CCN(c3cccc(Cl)c3)CC2)c(=O)n1CCOc1ccccc1` [Nefazodone HCl], in test [1] (library: Prestwick), the neuronal differentiation score was inactive: 0. Further, the “dopaminergic neuron differentiation score” value in test [2] (library: Prestwick) is active: 3.

For the molecule `CC(C(=O)O)c1ccc(CC2CCCC2=O)cc1` (configuration not stated), the neuronal differentiation score in test [1] (library: Spectrum) is inactive: 0. The “dopaminergic neuron differentiation score” value in test [2] (library: Spectrum) was inactive: 0.

`Cc1ccc(N(CC2=NCCN2)c2cccc(O)c2)cc1` [Phentolamine hydrochloride]: the neuronal differentiation score in test [1] (library: Prestwick) is inactive: 0. In addition, the “dopaminergic neuron differentiation score” value in test [2] (library: Prestwick) was inactive: 0.

`NC(=O)c1cccc(N)c1` [3-Aminobenzamide]: in test [1] (library: Tocriscreen), the neuronal differentiation score was inactive: 0. The “dopaminergic neuron differentiation score” value in test [2] (library: Tocriscreen) was inactive: 0.

Consider `Cc1ncc(CO)c(CO)c1O`, for which, in test [1] (library: Spectrum), the neuronal differentiation score is inactive: 0. The “dopaminergic neuron differentiation score” value in test [2] (library: Spectrum) is inactive: 0.

On to `COc1cc2c(cc1OC)C(C=Cc1ccc(OC)c(OC)c1OC)=NCC2`, for which the neuronal differentiation score in test [1] (library: Natural) is inactive: 0. Further, the “dopaminergic neuron differentiation score” value in test [2] (library: Natural) is inactive: 0.

Regarding `CC1CCC(NC(=O)N(CCCl)N=O)CC1` (configuration not stated), the neuronal differentiation score in test [1] (library: Spectrum) was inactive: 0. The “dopaminergic neuron differentiation score” value in test [2] (library: Spectrum) is inactive: 0.

As to `C/C=C/c1ccc(OC)cc1`, the neuronal differentiation score in test [1] (library: Spectrum) was inactive: 0. Also, in test [2] (library: Spectrum), the “dopaminergic neuron differentiation score” value is inactive: 1.

In the case of `CC[C@@H]1Cn2c(c3nc(-c4ccccc4)nc-3n(C)c2=O)N1`, in test [1] (library: Tocriscreen), the neuronal differentiation score is inactive: 0. Moreover, the “dopaminergic neuron differentiation score” value in test [2] (library: Tocriscreen) was inactive: 0.

In the case of `CC(C)NCC(O)c1ccc(O)c(O)c1` (stereo not drawn) [S(+)-Isoproterenol (+)-bitartrate], the neuronal differentiation score in test [1] (library: LOPAC) was inactive: 1. The “dopaminergic neuron differentiation score” value in test [2] (library: LOPAC) is inactive: 0.

For `CC(C)[C@H](CO)Nc1nc(Nc2ccc(C(=O)O)c(Cl)c2)c2ncn(C(C)C)c2n1` [Purvalanol B], the neuronal differentiation score in test [1] (library: Tocriscreen) is inactive: 0. Also, the “dopaminergic neuron differentiation score” value in test [2] (library: Tocriscreen) was inactive: 0.

For `NC(=O)N[C@@H](CCC(=O)O)C(=O)O`, the neuronal differentiation score in test [1] (library: Spectrum) is inactive: 0. The “dopaminergic neuron differentiation score” value in test [2] (library: Spectrum) is inactive: 0.

Regarding `Nc1ccc(-c2cccc3c(=O)cc(N4CCOCC4)oc23)cc1`, in test [1] (library: Tocriscreen), the neuronal differentiation score is inactive: 0. Further, in test [2] (library: Tocriscreen), the “dopaminergic neuron differentiation score” value was inactive: 0.

Consider `CN(C)CCC(c1ccc(Cl)cc1)c1ccccn1` (single isomer, unassigned; (+)) [(+)-Chlorpheniramine maleate], for which, in test [1] (library: LOPAC), the neuronal differentiation score was inactive: 0. Also, the “dopaminergic neuron differentiation score” value in test [2] (library: LOPAC) was inactive: 0.

Take `Clc1cccc(Cl)c1NC1=NCCN1`: the neuronal differentiation score in test [1] (library: Spectrum) is inactive: 0. For the same molecule, in test [2] (library: Spectrum), the “dopaminergic neuron differentiation score” value was inactive: 0.

As to `O=C(O)c1cc(=O)c2cccc(O)c2[nH]1` [Xanthurenic Acid], in test [1] (library: Phytochemical), the neuronal differentiation score is inactive: 0. Also, the “dopaminergic neuron differentiation score” value in test [2] (library: Phytochemical) was inactive: 0.

Turning to `CC(=O)O[C@H]1Cc2ccccc2N(C(N)=O)c2ccccc21`, the neuronal differentiation score in test [1] (library: LOPAC) was inactive: 0. Moreover, the “dopaminergic neuron differentiation score” value in test [2] (library: LOPAC) was inactive: 0.

Take `CCCCc1nn(-c2ccccc2C(F)(F)F)c(=O)n1Cc1ccc(-c2ccccc2S(=O)(=O)NC(=O)c2sccc2C)cc1`: in test [1] (library: Tocriscreen), the neuronal differentiation score is inactive: 0. The “dopaminergic neuron differentiation score” value in test [2] (library: Tocriscreen) is inactive: 0.

For the molecule `N#C/C(=C/c1ccc(O)c(O)c1)C(=O)N1CCc2ccccc21` [Tyrphostin AG 528], in test [1] (library: LOPAC), the neuronal differentiation score was inactive: 0. The “dopaminergic neuron differentiation score” value in test [2] (library: LOPAC) was inactive: 0.

Regarding `Nc1cc(Cl)c(NC2=NCCN2)c(Cl)c1` [p-Aminoclonidine hydrochloride], in test [1] (library: LOPAC), the neuronal differentiation score is inactive: 0. Moreover, in test [2] (library: LOPAC), the “dopaminergic neuron differentiation score” value was inactive: 0.

In the case of `Cc1cn[nH]c1` [Fomepizole], the neuronal differentiation score in test [1] (library: Prestwick) was inactive: 0. In test [2] (library: Prestwick), the “dopaminergic neuron differentiation score” value is inactive: 0.

Turning to `C1CCN2C[C@@H]3C[C@@H](CN4CCCC[C@@H]34)[C@H]2C1` [Sparteine (-)], in test [1] (library: Phytochemical), the neuronal differentiation score is inactive: 0. Moreover, the “dopaminergic neuron differentiation score” value in test [2] (library: Phytochemical) is inactive: 0.

As for `CC(=O)N(CC(O)CO)c1c(I)c(C(=O)NCC(O)CO)c(I)c(C(=O)NCC(O)CO)c1I` (configuration not stated) [Iohexol], in test [1] (library: Prestwick), the neuronal differentiation score was inactive: 0. Moreover, in test [2] (library: Prestwick), the “dopaminergic neuron differentiation score” value was inactive: 0.

`CC(=O)[C@@]12O[C@](C)(c3ccccc3)O[C@@H]1C[C@H]1[C@@H]3CCC4=CC(=O)CC[C@]4(C)[C@H]3CC[C@@]12C`: the neuronal differentiation score in test [1] (library: Spectrum) was inactive: 0. Further, the “dopaminergic neuron differentiation score” value in test [2] (library: Spectrum) was inactive: 0.

On to `CC1=C(C(=O)OCCN(Cc2ccccc2)c2ccccc2)C(c2cccc([N+](=O)[O-])c2)C(P2(=O)OCC(C)(C)CO2)=C(C)N1` (configuration not stated) [Efonidipine hydrochloride monoethanolate], for which the neuronal differentiation score in test [1] (library: Tocriscreen) is inactive: 0. In addition, the “dopaminergic neuron differentiation score” value in test [2] (library: Tocriscreen) was inactive: 1.

For the molecule `CC(=O)NCCc1ccc(O)c(-c2c(O)c(O)c3c(c2O)C(=O)c2c(cc(O)c(C(=O)O)c2C(=O)O)C3=O)c1`, the neuronal differentiation score in test [1] (library: Spectrum) is inactive: 0. The “dopaminergic neuron differentiation score” value in test [2] (library: Spectrum) was inactive: 0.

With `C[C@@H]1CC[C@@]23CCC4(C)[C@@](C=CC5[C@@]6(C)CCC(=O)C(C)(C)C6CC[C@]54C)(OC2=O)C3[C@H]1C` (some centres not stated), in test [1] (library: Spectrum), the neuronal differentiation score is inactive: 0. The “dopaminergic neuron differentiation score” value in test [2] (library: Spectrum) was inactive: 0.

As to `CC(C)NCC(O)c1ccc(O)c(O)c1` (configuration not stated) [Isoproterenol hydrochloride], the neuronal differentiation score in test [1] (library: Tocriscreen) was active: 2. Further, the “dopaminergic neuron differentiation score” value in test [2] (library: Tocriscreen) is inactive: 0.

In the case of `CCCCCCCCCCC[C@@H](C[C@@H]1OC(=O)[C@H]1CCCCCC)OC(=O)[C@H](CC(C)C)NC=O`, the neuronal differentiation score in test [1] (library: Spectrum) was inactive: 0. Besides, the “dopaminergic neuron differentiation score” value in test [2] (library: Spectrum) is inactive: 0.

In the case of `CN(C)CCOC(=O)COc1ccc(Cl)cc1` [Meclofenoxate hydrochloride], the neuronal differentiation score in test [1] (library: Prestwick) is inactive: 0. Besides, in test [2] (library: Prestwick), the “dopaminergic neuron differentiation score” value is inactive: 0.
